Results are given in words; binding and its absence hold for the method and conditions named. Binding seen in cells or lysates may run through a third protein. Some results given as binding are weak or reduced against the parent protein; the word gives no strength. Tags and fused reporters may be left off the sequences shown.

Sequences of proteins named here, by UniProt entry; tags and fusion partners are left off. Residues count along the entry.
UniProt Q9NZQ7, residues 19-290: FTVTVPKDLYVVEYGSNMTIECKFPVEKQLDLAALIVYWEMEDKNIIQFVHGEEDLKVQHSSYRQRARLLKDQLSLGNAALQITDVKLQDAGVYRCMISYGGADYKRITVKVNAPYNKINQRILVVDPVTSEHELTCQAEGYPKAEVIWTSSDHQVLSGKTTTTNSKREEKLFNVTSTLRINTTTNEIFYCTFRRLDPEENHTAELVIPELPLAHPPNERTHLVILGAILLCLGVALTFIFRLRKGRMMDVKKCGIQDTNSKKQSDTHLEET

Drawing on publication PMC12675009, this text covers binding for one molecule.

For the assay, the target named is GFP-PD-L1 (full length PD-L1, pEGFP-N1/PD-L1) (UniProt Q9NZQ7). Description: co-IP; truncation mapping in transfected cells (cell line not stated): USP32 truncations with full length PD-L1; PD-L1 truncation with full length USP32.

B1: USP32 truncation U2 (367-585), HA-tagged (domain or fragment, UniProt Q8NFA0 367-585)
chain: RPATPEEEGQIIRGWLERESRYGLQAGHNWFIISMQWWQQWKEYVKYDANPVVIEPSSVLNGGKYSFGTAAHPMEQVEDRIGSSLSYVNTTEEKFSDNISTASEASETAGSGFLYSATPGADVCFARQHNTSDNNNQCLLGANGNILLHLNPQKPGAIDNQPLVTQEPVKATSLTLEGGRLKRTPQLIHGRDYEMVPEPVWRALYHWYGANLALPRPVI
With B1, the binding entry is reported as “binds”.
